Laboratory results published in PMC8104407.
Results are given in words; binding and its absence hold for the method and conditions named. Binding seen in cells or lysates may run through a third protein. Binding calls can cover weak binding; strength is not graded here. Where a sequence is shown, tags or fusion partners need not be part of it.

Tests used:
Test in all cases: co-IP; FLAG-tagged NPHP1 variants co-transfected with GFP-NPHP2 or GFP-NPHP5 in 293T/17 cells (NPHP8 endogenous); protein extracts immunoprecipitated with anti-FLAG M2 magnetic beads; immunoblotting; empty pCS2FLAG vector as control
[1] = biological target: FLAG-tagged NPHP1 aa242-685 (mouse)
[2] = biological target: FLAG-tagged NPHP1 (full-length) (mouse)
[3] = biological target: FLAG-tagged NPHP1 Δ(49–110) (mouse)

Measured: binding

B1: GFP-tagged NPHP2 (protein, UniProt Q9Y283 1-1065)
chain: MNKSENLLFAGSSLASQVHAAAVNGDKGALQRLIVGNSALKDKEDQFGRTPLMYCVLADRLDCADALLKAGADVNKTDHSQRTALHLAAQKGNYRFMKLLLTRRANWMQKDLEEMTPLHLTTRHRSPKCLALLLKFMAPGEVDTQDKNKQTALHWSAYYNNPEHVKLLIKHDSNIGIPDVEGKIPLHWAANHKDPSAVHTVRCILDAAPTESLLNWQDYEGRTPLHFAVADGNVTVVDVLTSYESCNITSYDNLFRTPLHWAALLGHAQIVHLLLERNKSGTIPSDSQGATPLHYAAQSNFAETVKVFLKHPSVKDDSDLEGRTSFMWAAGKGSDDVLRTMLSLKSDIDINMADKYGGTALHAAALSGHVSTVKLLLENNAQVDATDVMKHTPLFRACEMGHKDVIQTLIKGGARVDLVDQDGHSLLHWAALGGNADVCQILIENKINPNVQDYAGRTPLQCAAYGGYINCMAVLMENNADPNIQDKEGRTALHWSCNNGYLDAIKLLLDFAAFPNQMENNEERYTPLDYALLGERHEVIQFMLEHGALSIAAIQDIAAFKIQAVYKGYKVRKAFRDRKNLLMKHEQLRKDAAAKKREEENKRKEAEQQKGRRSPDSCRPQALPCLPSTQDVPSRQSRAPSKQPPAGNVAQGPEPRDSRGSPGGSLGGALQKEQHVSSDLQGTNSRRPNETAREHSKGQSACVHFRPNEGSDGSRHPGVPSVEKSRGETAGDERCAKGKGFVKQPSCIRVAGPDEKGEDSRRAAASLPPHDSHWKPSRRHDTEPKAKCAPQKRRTQELRGGRCSPAGSSRPGSARGEAVHAGQNPPHHRTPRNKVTQAKLTGGLYSHLPQSTEELRSGARRLETSTLSEDFQVSKETDPAPGPLSGQSVNIDLLPVELRLQIIQRERRRKELFRKKNKAAAVIQRAWRSYQLRKHLSHLRHMKQLGAGDVDRWRQESTALLLQVWRKELELKFPQTTAVSKAPKSPSKGTSGTKSTKHSVLKQIYGCSHEGKIHHPTRSVKASSVLRLNSVSNLQCIHLLENSGRSKNFSYNLQSATQPKNKTKP
binds: all assays above

B2: GFP-tagged NPHP5 (protein, UniProt Q15051 1-598)
chain: MKPTGTDPRILSIAAEVAKSPEQNVPVILLKLKEIINITPLGSSELKKIKQDIYCYDLIQYCLLVLSQDYSRIQGGWTTISQLTQILSHCCVGLEPGEDAEEFYNELLPSAAENFLVLGRQLQTCFINAAKAEEKDELLHFFQIVTDSLFWLLGGHVELIQNVLQSDHFLHLLQADNVQIGSAVMMMLQNILQINSGDLLRIGRKALYSILDEVIFKLFSTPSPVIRSTATKLLLLMAESHQEILILLRQSTCYKGLRRLLSKQETGTEFSQELRQLVGLLSPMVYQEVEEQKLHQAACLIQAYWKGFQTRKRLKKLPSAVIALQRSFRSKRSKMLLEINRQKEEEDLKLQLQLQRQRAMRLSRELQLSMLEIVHPGQVEKHYREMEEKSALIIQKHWRGYRERKNFHQQRQSLIEYKAAVTLQRAALKFLAKCRKKKKLFAPWRGLQELTDARRVELKKRVDDYVRRHLGSPMSDVVSRELHAQAQERLQHYFMGRALEERAQQHREALIAQISTNVEQLMKAPSLKEAEGKEPELFLSRSRPVAAKAKQAHLTTLKHIQAPWWKKLGEESGDEIDVPKDELSIELENLFIGGTKPP
binds: all assays above
